Assay results from patent publication US10058587B2, “Peptide composition for cancer treatment by inhibiting TRPV6 calcium channel activity” (priority 2008, dated 2018).
Some entries share one result that the patent states for a list of compounds. Where no end group is shown, it is not given here.

Tests used:
LnCaP cells = test: Prostate cancer xenograft model (Example 17); assay type: in vivo, SCID mice; conditions: optionally 200-400 mg/kg body weight
MCF7 and T47D cells = test: Breast cancer xenograft model (Example 15); assay type: in vivo, NOD/SCID mice; conditions: optionally 200-400 mg/kg body weight
MCF7 cells = test: Breast cancer xenograft model (Example 18); assay type: in vivo, NOD/SCID mice; conditions: optionally 200-400 mg/kg body weight
K-562 cells = test: CML xenograft model (Example 16); assay type: in vivo, NOD/SCID mice; conditions: optionally 200-400 mg/kg body weight
MV-4-11 cells = test: AML xenograft model (Example 20); assay type: in vivo, SCID mice; conditions: optionally 200-400 mg/kg body weight
MDA-MB-231 cells = test: Breast cancer xenograft model (Example 19); assay type: in vivo, SCID mice; conditions: optionally 200-400 mg/kg body weight
[1] = Storage stability of solid and aqueous solution; assay type: physicochemical; conditions: 8° C.
Procedure: Additionally, the peptides have greater shelf-life stability and solution stability due to the presence of fewer sensitive disulfide bonds (soricidin has 3 disulfide bonds). The peptides of the invention optionally have no disulfide bonds. An absence of disulfide bonds provides a very long shelflife during storage under minimal refrigeration or at room temperature as a solid. Additionally when the peptides of the invention with no disulfide bonds are dissolved in water, cleavage of disulfide bonds cannot occur. […] The formation of inter-peptide S—S bonds also results in precipitation of soricidin. The peptides of the invention, such as SorC13 and SorC27, are typically stable in aqueous solution at 8° C. for at least 3 weeks with no change in purity as measured by HPLC.
“Very stable” in the above table means that there was no observable degradation of the solid peptides over 6 months. As a solution in sterile water, the peptides are typically stable for at least 3 weeks at 8° C. and at −20° C., are expected to be stable more than 1 year.

Row | Sequence | % T/C value (LnCaP cells) [%] | % T/C value (MCF7 and T47D cells) [%] | % T/C value (MCF7 cells) [%] | % T/C value (K-562 cells) [%] | % T/C value (MV-4-11 cells) [%] | % T/C value (MDA-MB-231 cells) [%] | stable in aqueous solution, no change in purity by HPLC [1]
1 | KEFLHPSKVDLPR [SorC13, KEFLHPSKVDLPR] | < 100 | < 100 | < 100 | < 100 | < 100 | < 100 | at least 3 weeks
2 | EGKLSSNDTEGGLCKEFLHPSKVDLPR [SorC27] | < 100 | < 100 | < 100 | < 100 | < 100 | < 100 | at least 3 weeks
